Results are percentages, as filed.
How 0% and 100% were set is not recorded. Most values in the screen are low, and negative values occur.
Compounds were drawn at random from those tested, without regard to their results.

By UniProt entry, the sequences of proteins in these tests, tags left out.
UniProt E9BF75, entry or part of it: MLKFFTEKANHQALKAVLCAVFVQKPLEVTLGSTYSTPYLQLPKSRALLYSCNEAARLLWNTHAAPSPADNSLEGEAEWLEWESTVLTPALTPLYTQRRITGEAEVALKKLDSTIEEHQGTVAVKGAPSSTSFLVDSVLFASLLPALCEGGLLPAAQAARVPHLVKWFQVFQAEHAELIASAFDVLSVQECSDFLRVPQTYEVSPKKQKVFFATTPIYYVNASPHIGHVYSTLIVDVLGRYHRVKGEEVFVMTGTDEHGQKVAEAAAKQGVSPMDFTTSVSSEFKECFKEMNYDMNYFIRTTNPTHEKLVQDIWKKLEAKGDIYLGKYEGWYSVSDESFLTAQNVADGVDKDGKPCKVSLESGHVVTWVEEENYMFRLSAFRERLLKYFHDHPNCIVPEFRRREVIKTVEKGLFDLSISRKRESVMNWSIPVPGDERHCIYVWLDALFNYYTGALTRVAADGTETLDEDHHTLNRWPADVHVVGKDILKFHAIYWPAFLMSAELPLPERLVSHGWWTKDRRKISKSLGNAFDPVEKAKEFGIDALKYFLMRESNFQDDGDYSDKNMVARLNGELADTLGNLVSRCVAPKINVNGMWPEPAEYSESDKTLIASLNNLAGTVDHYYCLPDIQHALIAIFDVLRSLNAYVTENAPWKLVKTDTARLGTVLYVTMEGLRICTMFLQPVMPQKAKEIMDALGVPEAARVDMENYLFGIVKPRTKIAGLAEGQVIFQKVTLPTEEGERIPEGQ

LdMetRS: 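Methionyl-tRNA synthetase (putative), Leishmania donovani (UniProt E9BF75). Primary screen of methionyl-tRNA synthetase; the read-out is not stated. The test concentration is not given. The values are filed as inhibition. Size under these conditions: about 68,000 compounds, about 24 of them at 50% or above in at least one test.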
Mtb heat-shock: 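Assay on Mycobacterium tuberculosis, filed only as a heat shock assay from Cornell; the read-out is not stated. The concentration is filed as 10 mM, unlikely as a test dose, so the dose is not known. Higher reads as stronger inhibition (inferred: compounds with an IC50 in retests scored well above the rest). Of about 69,000 compounds tested this way, about 930 (1.4%) reached 50% or more in at least one test.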

{"smiles": "CN1CCN(Cc2cn3c(n2)CNCC3)CC1.Cl.Cl.Cl", "Mtb heat-shock": -42.67}
{"smiles": "FC(F)(F)c1ccccc1CN1CCOC[C@H](Oc2cccnc2)C1", "LdMetRS": 12.54, "Mtb heat-shock": -28.03}
{"smiles": "CSc1sc(NC(=O)Cc2c(C)nc(C)[nH]c2=O)nc1C", "LdMetRS": 11.22, "Mtb heat-shock": 2.077}
{"smiles": "O=C(c1ccccn1)N1CCc2ncnc(N3CCOCC3)c2CC1", "LdMetRS": 5.926, "Mtb heat-shock": -18.73}
{"smiles": "COc1ccccc1C(C(=O)O)N1CCCN(C2CCCC2)CC1", "stereo": "stereo unspecified", "Mtb heat-shock": -17.57}
{"smiles": "CCc1nc(CN(C)C(=O)c2ccc(OCCCOC)nc2)cs1", "LdMetRS": 3.183, "Mtb heat-shock": -8.254}
{"smiles": "O=C1C[C@H]2[C@H](CCN2C(=O)c2ccno2)N1CC1CC1", "LdMetRS": -4.918}
{"smiles": "COC(=O)N1CCCN(Cn2nc(C)c(Br)c2C)CC1", "LdMetRS": 7.788, "Mtb heat-shock": -19.18}
{"smiles": "CN1C(=O)CC2(CCN(Cc3cnn(C)c3)CC2)c2ccccc21", "LdMetRS": 2.422, "Mtb heat-shock": -16.88}
{"smiles": "O=C(CO)N1CCOC2(CCCN(c3ncc(F)cn3)C2)C1.O=C(O)C(F)(F)F", "stereo": "stereo unspecified", "Mtb heat-shock": -3.9}
{"smiles": "Cn1ccc(C(=O)Nc2nc(-c3ccc4c(c3)CCO4)cs2)cc1=O", "LdMetRS": 14.52, "Mtb heat-shock": 0.5097}
{"smiles": "O=C(CN1CC(c2nc(-c3ccco3)no2)C1)NCC1CCCO1.O=C(O)C(=O)O", "stereo": "stereo unspecified", "Mtb heat-shock": -5.404}
{"smiles": "O=C(c1cccs1)N1CCC2(CC1)CC(Oc1ccccc1)CO2", "stereo": "stereo unspecified", "LdMetRS": 7.519, "Mtb heat-shock": -23.82}
{"smiles": "Cc1ccc(C(=O)N2CCC3(CC2)CC(N2CCOCC2)C3)cc1", "LdMetRS": 11.11}
{"smiles": "O=C(NS(=O)(=O)c1cccc(C(F)(F)F)c1)c1cnsn1", "LdMetRS": 14.78, "Mtb heat-shock": -32.83}
{"smiles": "CC[C@H](CO)NC(=O)c1coc(COc2cccc(F)c2F)n1", "LdMetRS": 0.9804, "Mtb heat-shock": -15}
{"smiles": "CC(C)NC(=O)N1CCc2onc(C(=O)NCCN(C)C)c2C1", "LdMetRS": 3.114}
{"smiles": "CC(C)NC(=O)c1cccc(NC(=O)CCCc2nc(C(C)C)no2)c1", "LdMetRS": 9.399, "Mtb heat-shock": 8.621}
{"smiles": "Cc1[nH]ncc1C(=O)N1CCCC(n2cncn2)C1", "stereo": "stereo unspecified", "LdMetRS": 8.333, "Mtb heat-shock": -21.26}
{"smiles": "CCc1nc(C)c(-c2nccn2CC2CCCCO2)[nH]1", "stereo": "stereo unspecified", "LdMetRS": 6.863, "Mtb heat-shock": 3.939}
{"smiles": "Cn1cc(NC(=O)CCc2ccsc2)ccc1=O", "LdMetRS": 15.25, "Mtb heat-shock": 27.26}
{"smiles": "NC(=O)CCn1cc(CNCCCc2csc(N)n2)c2ccccc21", "LdMetRS": 3.373, "Mtb heat-shock": -6.495}
{"smiles": "CC(C)(CN1C[C@H](Nc2ncccn2)[C@@H](C2CC2)C1)N1CCOCC1", "LdMetRS": 3.553, "Mtb heat-shock": -11.42}
{"smiles": "[H][C@]12CCN(C(=O)c3ccc4c(c3)CCCC4)CC[C@]1([H])OCC(=O)N2", "Mtb heat-shock": -0.7745}
{"smiles": "O=C(Cc1ccccc1)N1CCC2(CC(=O)N(c3cccc(F)c3)C2)C1", "stereo": "stereo unspecified", "LdMetRS": 21.93, "Mtb heat-shock": 5.821}
{"smiles": "Cc1cc(CN2CCC(C3Nc4ccccc4S(=O)(=O)N3)CC2)oc1C", "stereo": "stereo unspecified", "LdMetRS": 7.767, "Mtb heat-shock": -39.8}
{"smiles": "CCCS(=O)(=O)CC(=O)N1CCCC1c1noc(C2CC2)n1", "stereo": "stereo unspecified", "LdMetRS": 13.49, "Mtb heat-shock": -13.29}
{"smiles": "Cc1ccc(-c2cc(CNC(=O)N3CCOC(C)C3)on2)cc1", "stereo": "stereo unspecified", "LdMetRS": 9.206, "Mtb heat-shock": 11.85}
{"smiles": "COc1ccc(C(C)NC(=O)Nc2nnc(C)s2)c(OC)c1", "stereo": "stereo unspecified", "LdMetRS": 5.694, "Mtb heat-shock": 18.78}
{"smiles": "c1ccc(OCc2ccncc2)c(CNC2CCc3ncnn3C2)c1", "stereo": "stereo unspecified", "LdMetRS": 9.816, "Mtb heat-shock": 14.47}
{"smiles": "COc1ccc(-c2nc(C3CCNCC3)cc3c2ncn3C)cc1", "LdMetRS": 3.361}
{"smiles": "CN(Cc1nc(N)c2ccccc2n1)C1CCCN(c2cccnn2)C1", "stereo": "stereo unspecified", "LdMetRS": 14.98, "Mtb heat-shock": -3.691}
{"smiles": "Cc1nsc(NC(=O)NC2CCCN(C)C2)n1", "stereo": "stereo unspecified", "LdMetRS": -2.994, "Mtb heat-shock": -6.865}
{"smiles": "c1nc(N2CCCC2)ncc1CN1CCCC(CN2CCCCC2)C1", "stereo": "stereo unspecified", "LdMetRS": 2.54, "Mtb heat-shock": 7.159}
{"smiles": "Cc1csc(NC(=O)C2(C)CCCO2)n1", "stereo": "stereo unspecified", "LdMetRS": 8.707, "Mtb heat-shock": -0.6549}
{"smiles": "COCCN1CCc2ncnc(OC(C)C)c2CC1", "LdMetRS": 12.99}
{"smiles": "CCC(CC)c1cc(CNC(=O)N2CCOC(C)C2)on1", "stereo": "stereo unspecified", "LdMetRS": 11.52, "Mtb heat-shock": -11.21}
{"smiles": "CC(C)c1ccc(NS(=O)(=O)CC2=NC(=O)n3cccc3C2=O)cc1", "LdMetRS": 4.545, "Mtb heat-shock": 29.14}
{"smiles": "CCOC(C)c1noc(CN2CCN(Cc3ccno3)CC2)n1", "stereo": "stereo unspecified", "LdMetRS": 7.343, "Mtb heat-shock": -6.254}

For reference, 3 entries once more:

- Cc1[nH]ncc1C(=O)N1CCCC(n2cncn2)C1 (stereo unspecified) | LdMetRS: 8.333%; Mtb heat-shock: -21.26%
- CCCS(=O)(=O)CC(=O)N1CCCC1c1noc(C2CC2)n1 (stereo unspecified) | LdMetRS: 13.49%; Mtb heat-shock: -13.29%
- O=C(CO)N1CCOC2(CCCN(c3ncc(F)cn3)C2)C1.O=C(O)C(F)(F)F (stereo unspecified) | Mtb heat-shock: -3.9%

Source: ChEMBL document CHEMBL3988442, “University of Dundee, Small-Polar-MMV Screening Library” (2021).